# Assay results reported in the supplement of paper PMC8728848.
# This is one part of the list.
# B1: BIp1-His (Cryptococcus neoformans) (protein)
# chain: MFTKIFVALFAATAVLSAPVESAEKRITHTGRATFYSPSVGIGACGWQNTDEELVVALNAPQYALNADHNCGQSVRITNEQNGNQEIAKVVDLCPGCNDGDLDMSPALFGALNNNDFDQGVFPISWNFLPRDDTSSSN
# Columns and labels:
# Experiment in all cases: glycan array binding signal (z-score within array); higher = stronger binding
# Conditions in all cases: glycan notation: IUPAC condensed, linker removed
# [1] = target: Gal(b1-4)GalNAc(b1-3)[Fuc(a1-2)]Gal(b1-4)GlcNAc
# In short: (§1)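 From the Consortium for Functional Glycomics database, 3228 arrays were curated, keeping only those whose protein sequence was available. Binding is given as a within-array Z-score averaged across arrays sharing a protein sequence and across linkers. Negative Z-scores can be read as non-binding.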
# [2] = target: Gal(b1-4)Glc
# In short: as §1
# [3] = target: Gal(b1-4)Glc6S
# In short: as §1
# [4] = target: Gal(b1-4)GlcNAc
# In short: as §1
# [5] = target: Gal(b1-4)GlcNAc(a1-6)Gal(b1-4)GlcNAc
# In short: as §1
# [6] = target: Gal(b1-4)GlcNAc(b1-2)Man
# In short: as §1
# [7] = target: Gal(b1-4)GlcNAc(b1-2)Man(a1-3)Man(b1-4)GlcNAc(b1-4)GlcNAc
# In short: as §1
# [8] = target: Gal(b1-4)GlcNAc(b1-2)Man(a1-3)[Gal(b1-4)GlcNAc(b1-2)Man(a1-6)]Man(b1-4)GlcNAc(b1-4)GlcNAc
# In short: as §1
# [9] = target: Gal(b1-4)GlcNAc(b1-2)Man(a1-3)[Gal(b1-4)GlcNAc(b1-2)Man(a1-6)]Man(b1-4)GlcNAc(b1-4)[Fuc(a1-6)]GlcNAc
# In short: as §1
# [10] = target: Gal(b1-4)GlcNAc(b1-2)Man(a1-3)[Gal(b1-4)GlcNAc(b1-2)Man(a1-6)][Gal(b1-4)GlcNAc(b1-4)]Man(b1-4)GlcNAc(b1-4)[Fuc(a1-6)]GlcNAc
# In short: as §1
# [11] = target: Gal(b1-4)GlcNAc(b1-2)Man(a1-3)[Gal(b1-4)GlcNAc(b1-2)Man(a1-6)][GlcNAc(b1-4)]Man(b1-4)GlcNAc(b1-4)[Fuc(a1-6)]GlcNAc
# In short: as §1
# [12] = target: Gal(b1-4)GlcNAc(b1-2)Man(a1-3)[GlcNAc(b1-2)Man(a1-6)]Man(b1-4)GlcNAc(b1-4)GlcNAc
# In short: as §1
# [13] = target: Gal(b1-4)GlcNAc(b1-2)Man(a1-3)[GlcNAc(b1-4)][Gal(b1-4)GlcNAc(b1-2)Man(a1-6)]Man(b1-4)GlcNAc(b1-4)GlcNAc
# In short: as §1
# [14] = target: Gal(b1-4)GlcNAc(b1-2)Man(a1-3)[Man(a1-6)]Man(b1-4)GlcNAc(b1-4)GlcNAc
# In short: as §1
# [15] = target: Gal(b1-4)GlcNAc(b1-2)Man(a1-6)Man(b1-4)GlcNAc(b1-4)GlcNAc
# In short: as §1
# [16] = target: Gal(b1-4)GlcNAc(b1-2)Man(a1-6)[GlcNAc(b1-2)Man(a1-3)]Man(b1-4)GlcNAc(b1-4)GlcNAc
# In short: as §1
# [17] = target: Gal(b1-4)GlcNAc(b1-2)Man(a1-6)[Man(a1-3)]Man(b1-4)GlcNAc(b1-4)GlcNAc
# In short: as §1
# [18] = target: Gal(b1-4)GlcNAc(b1-2)[Gal(b1-4)GlcNAc(b1-4)]Man(a1-3)[Gal(b1-4)GlcNAc(b1-2)Man(a1-6)]Man(b1-4)GlcNAc(b1-4)GlcNAc
# In short: as §1
# [19] = target: Gal(b1-4)GlcNAc(b1-2)[Gal(b1-4)GlcNAc(b1-4)]Man(a1-3)[Gal(b1-4)GlcNAc(b1-2)[Gal(b1-4)GlcNAc(b1-6)]Man(a1-6)]Man(b1-4)GlcNAc(b1-4)GlcNAc
# In short: as §1
# [20] = target: Gal(b1-4)GlcNAc(b1-2)[Gal(b1-4)GlcNAc(b1-4)]Man(a1-3)[GlcNAc(b1-4)][Gal(b1-4)GlcNAc(b1-2)Man(a1-6)]Man(b1-4)GlcNAc(b1-4)GlcNAc
# In short: as §1
# [21] = target: Gal(b1-4)GlcNAc(b1-2)[Gal(b1-4)GlcNAc(b1-4)]Man(a1-3)[GlcNAc(b1-4)][Gal(b1-4)GlcNAc(b1-2)[Gal(b1-4)GlcNAc(b1-6)]Man(a1-6)]Man(b1-4)GlcNAc(b1-4)GlcNAc
# In short: as §1
# [22] = target: Gal(b1-4)GlcNAc(b1-2)[Gal(b1-4)GlcNAc(b1-6)]Man(a1-6)[Gal(b1-4)GlcNAc(b1-2)Man(a1-3)]Man(b1-4)GlcNAc(b1-4)GlcNAc
# In short: as §1
binder,measurement,setting,value
B1,glycan array binding signal (z-score),[1],-0.286
same,glycan array binding signal (z-score),[2],0.274
same,glycan array binding signal (z-score),[3],-0.16
same,glycan array binding signal (z-score),[4],-0.582
same,glycan array binding signal (z-score),[5],-0.263
same,glycan array binding signal (z-score),[6],1.27
same,glycan array binding signal (z-score),[7],0.081
same,glycan array binding signal (z-score),[8],-0.927
same,glycan array binding signal (z-score),[9],1.57
same,glycan array binding signal (z-score),[10],-1.35
same,glycan array binding signal (z-score),[11],-1.5
same,glycan array binding signal (z-score),[12],-1.02
same,glycan array binding signal (z-score),[13],-0.105
same,glycan array binding signal (z-score),[14],-0.834
same,glycan array binding signal (z-score),[15],0.116
same,glycan array binding signal (z-score),[16],-0.958
same,glycan array binding signal (z-score),[17],0.81
same,glycan array binding signal (z-score),[18],0.209
same,glycan array binding signal (z-score),[19],-0.558
same,glycan array binding signal (z-score),[20],-0.26
same,glycan array binding signal (z-score),[21],0.415
same,glycan array binding signal (z-score),[22],0.266

# Quoted at random: two records from the list.
binder,measurement,setting,value
B1,glycan array binding signal (z-score),[19],-0.558
same,glycan array binding signal (z-score),[22],0.266
